According to US8673943B2, “Fluorinated derivatives of deferiprone” (Apotex Technologies Inc., priority 2007, dated 2014):

stability in pH 7.4 phosphate buffer and 0.01 M sodium hydroxide: stable
SMILES: Cn1cc(O)c(=O)cc1C(F)F [Apo6719, 2-difluoromethyl-5-hydroxy-1-methyl-1H-pyridin-4-one]
